# Percent effect of library compounds

Sequences of proteins named here, by UniProt entry; tags and fusion partners are left off. Residues count along the entry.
UniProt P9WPC5, whole entry: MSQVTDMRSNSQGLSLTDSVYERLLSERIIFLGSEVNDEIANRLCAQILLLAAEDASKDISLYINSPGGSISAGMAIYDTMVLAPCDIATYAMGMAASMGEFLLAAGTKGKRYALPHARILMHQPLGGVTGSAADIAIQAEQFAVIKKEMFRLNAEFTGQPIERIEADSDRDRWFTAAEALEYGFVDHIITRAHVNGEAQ
UniProt P9WPC3, whole entry partner: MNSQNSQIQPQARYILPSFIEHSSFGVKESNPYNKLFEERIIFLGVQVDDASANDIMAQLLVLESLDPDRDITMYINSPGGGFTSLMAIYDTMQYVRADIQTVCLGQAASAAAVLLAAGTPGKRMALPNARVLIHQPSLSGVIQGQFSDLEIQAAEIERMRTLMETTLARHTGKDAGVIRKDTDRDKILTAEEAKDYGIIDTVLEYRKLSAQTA
UniProt Q8IDJ8, 1-583: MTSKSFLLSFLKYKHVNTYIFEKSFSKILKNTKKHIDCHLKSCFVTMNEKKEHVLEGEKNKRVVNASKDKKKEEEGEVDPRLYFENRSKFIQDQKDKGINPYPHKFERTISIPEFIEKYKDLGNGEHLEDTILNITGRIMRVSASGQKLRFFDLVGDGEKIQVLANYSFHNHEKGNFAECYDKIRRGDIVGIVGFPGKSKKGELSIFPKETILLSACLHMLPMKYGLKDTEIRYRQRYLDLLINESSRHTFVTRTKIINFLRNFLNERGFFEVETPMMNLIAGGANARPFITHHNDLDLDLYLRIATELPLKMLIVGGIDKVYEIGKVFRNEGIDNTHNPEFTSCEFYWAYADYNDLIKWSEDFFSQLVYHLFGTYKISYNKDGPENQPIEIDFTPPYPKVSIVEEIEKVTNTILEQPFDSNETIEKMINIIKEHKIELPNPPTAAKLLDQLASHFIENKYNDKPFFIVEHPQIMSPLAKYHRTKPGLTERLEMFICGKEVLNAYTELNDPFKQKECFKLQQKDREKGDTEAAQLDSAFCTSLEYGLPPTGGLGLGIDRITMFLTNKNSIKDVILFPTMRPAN

Source: ChEMBL document CHEMBL3988442, “University of Dundee, Small-Polar-MMV Screening Library” (2021).

Leishmania in macrophages: 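Cell assay of Leishmania donovani living inside macrophages; the read-out is not stated. Tested at 30 µM. The record gives no direction; compounds that gave an IC50 in retests scored well above the rest, so higher reads as stronger inhibition. Of about 69,000 compounds tested this way, about 1,000 (1.5%) reached 50% or more in at least one test.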
ClpP1P2: 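Protease assay of ClpP1P2, read by the AMC dye that it sets free. Target: ClpP1P2, Mycobacterium tuberculosis (UniProt P9WPC5 and UniProt P9WPC3). Compounds at 50 µM. Higher reads as stronger inhibition, judged from the few compounds that gave an IC50. Most other retested compounds had strongly negative values. Of about 69,000 compounds tested this way, about 10 (0.015%) reached 50% or more in at least one test.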
Toxoplasma: 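Assay of Toxoplasma gondii numbers, read through their beta-galactosidase reporter with a colour substrate. Compounds at 10 µM. The record gives no direction; the compounds picked for IC50 retests had high values, so higher reads as fewer parasites. About 67,000 compounds were tested under these conditions; 0.38% (about 260) showed 50% or more at least once.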
PfKRS1: 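Lysine-tRNA ligase, Plasmodium falciparum 3D7 (UniProt Q8IDJ8). Enzyme assay of the cytosolic lysyl-tRNA synthetase in 384-well plates, read by luminescence. Compounds at 30 µM. Direction is inferred from only a few compounds that gave an IC50; most scored high, so higher reads as stronger inhibition. Of about 69,000 compounds tested this way, about 49 (0.071%) reached 50% or more in at least one test.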

Results are given as percent effect.
How 0% and 100% were set is not recorded. Most values in the screen are low, and negative values occur.
Compounds were drawn at random from those tested, without regard to their results.
A dash means the value is not listed here; it may have been measured.

| Compound | Leishmania in macrophages | ClpP1P2 | Toxoplasma | PfKRS1 |
|---|---|---|---|---|
| `CNc1oc(COc2ccc3c(c2)OCO3)nc1C#N` | 0.6795 | -3.203 | 29.44 | 2.206 |
| `COc1cc(NC(=O)NC2CC2)ccc1N1CCOC1=O` | -33.89 | -5.021 | 7.396 | -1.075 |
| `CC(C)(C)OC(=O)N1CCC[C@H](NCc2cc[nH]c2)C1` | 43.85 | -0.5975 | 0.8653 | -1.7 |
| `COCCN(Cc1cnn(C)c1)C(=O)C1CCC(=O)N(C2CCCC2)C1` (stereo not given) | 12.1 | 8.168 | -7.107 | -0.4146 |
| `CC(C)c1nnc2n1CC(CNC/C=C/c1ccccc1)CC2` (stereo not given) | 5.474 | 5.893 | 7.025 | -0.2232 |
| `Cc1nc(C)n(CC2CCCN(Cc3noc(C)n3)C2)n1` (stereo not given) | 22.26 | 10.28 | -16.55 | -1.736 |
| `Cc1cnn(C2CN(Cc3nc(-c4cccnc4)no3)C2)c1` | 11.33 | -10.48 | 14.83 | -0.08757 |
| `Cc1nc2cc(-c3nccn3C)nn2c(N2CCCC(O)C2)c1C.Cl` (stereo not given) | 35.39 | - | -13.7 | - |
| `CC(NCC1CCN(CCO)CC1)c1ccc(OC(F)(F)F)cc1` (stereo not given) | 36.61 | -7.725 | 19 | -1.186 |
| `CC1CCCCN1C(=O)c1nc2c(n1C(C)C)CCN(C)C2.O=C(O)C(F)(F)F` (stereo not given) | 8.593 | - | -2.643 | - |
| `COc1ccc(-c2cnc(N)nc2C2CCCNC2)cc1.Cl` (stereo not given) | 18.04 | - | -28.3 | - |
| `Cc1nc(CSc2nc(=O)ccn2C(C)C)cs1` | 24.42 | -19.11 | -41.63 | -3.327 |
| `CCCn1[nH]cc/c1=N\C(=O)CN1CCc2cnc(C(C)C)nc2C1` | 7.416 | -76.65 | 4.46 | 3.224 |
| `CCc1cnc(C)nc1NC1CC(=O)N(CC2CCCCC2)C1` (stereo not given) | -60.05 | -18.9 | -8.841 | 4.92 |
| `CC(C)N(C)C(=O)c1ccc(CNc2ccncc2Cl)cc1` | 38.26 | 19.51 | 23.97 | -3.849 |
| `Cc1ccc(-c2noc(C3CCN3C(=O)c3ccc(=O)[nH]n3)n2)s1` (stereo not given) | 18.27 | -9.783 | 4.069 | 1.348 |
| `CCC(NC(=O)c1nn(C)cc1C(=O)O)c1ccc(C)cc1` (stereo not given) | 8.131 | -1.321 | -0.4512 | 2.417 |
| `Cc1n[nH]c(C)c1CC(=O)N1CCC(O)(CN2CCOCC2)C1` (stereo not given) | 28.49 | 14.32 | 9.934 | 0.6972 |
| `CCn1c(C2CCCNC2)nn(Cc2ccc(C(=O)NC)o2)c1=O` (stereo not given) | 23.14 | 18.51 | -9.454 | 5.485 |
| `O=C(O)C(F)(F)F.[H][C@]12CCCC(OCc3cccnc3)[C@@]1([H])CN(C(=O)COC)C2` (stereo not given in full) | -4.639 | - | 6.93 | - |
| `CC(Cn1cccn1)NCC(=O)NC1CCOCC1` (stereo not given) | -58.93 | 19.05 | -3.22 | 0.1491 |
| `CC(C)N(CCNC(=O)c1n[nH]c2ccccc12)C(C)C` | 23.68 | 6.943 | 5.841 | 2.389 |
| `Cc1nc(C2CCN(C(=O)CO)CC2)cc(N2CCOCC2)n1` | 39.51 | -2.351 | -2.022 | 2.195 |
| `O[C@H]1COCCN(Cc2cccc(C(F)(F)F)c2)C1` | 6.318 | 5.155 | -4.813 | 8.231 |
| `CN(CCO)C[C@@H]1CN(Cc2ccccc2-c2ccccc2)C[C@@H]1CO` | 83.9 | 2.573 | 13.16 | -0.9932 |
| `Cc1cc(C)n(C2CCCN(C(=O)c3cnc4onc(C)c4c3)C2)n1` (stereo not given) | 13.79 | -13.65 | -33.96 | -4.137 |
| `O=C(O)C(F)(F)F.O=C(O)C(F)(F)F.O=C(O)C(F)(F)F.[H][C@@]12CN(CCOC)C[C@]1([H])[C@@H](OC)CCN2Cc1cccc(C)n1` | 36.37 | - | 10.4 | - |
| `Cc1ccnn1CCNC(=O)C1CCN(S(=O)(=O)c2ccc(F)cc2)C1` (stereo not given) | 11.43 | 3.97 | 16.3 | -1.747 |
| `Cc1ccc(N2CCC3(CC2)CCN(C2CCOCC2)CC3)nn1` | - | -9.309 | - | 0.7134 |
| `CC(Sc1nnc(C2CC2)n1CC(N)=O)c1ccc(F)cc1F` (stereo not given) | 15.48 | 10.27 | -4.959 | 5.844 |
| `COCc1ccc(CN[C@H]2C[C@@H](Cc3cc(CCO)on3)C2(C)C)o1` | 15.98 | -1.034 | 11.37 | 4.086 |
| `Cc1ccc(NC(C)C(=O)NCc2cccs2)cc1C` (stereo not given) | 11.88 | 1.888 | 0.7663 | -4.741 |
| `Cc1csc(N2CCCN(C(=O)c3nccnc3N)CC2)n1` | 0.6485 | 2.349 | 1.427 | 8.441 |
| `O=S1(=O)C[C@@H]2[C@H](C1)N(Cc1ncc[nH]1)CCN2CCCc1ccccc1` | - | -10.27 | - | 2.661 |
| `Cc1ccc2c(c1)C(NC(C)C)CC21CCNCC1` (stereo not given) | - | 3.547 | - | 1.067 |
| `Fc1cnc(N2CCOC3(CCN(Cc4cccs4)CC3)C2)nc1.O=C(O)C(F)(F)F.O=C(O)C(F)(F)F` | 53.49 | - | 0.7672 | - |
| `CCc1nnc(CN(C)C[C@@H]2CCCN3CCCC[C@H]23)o1` | - | -0.9321 | - | 2.796 |
| `CCNC(=O)CN1CCc2c(Br)ccc(F)c2C1` | 9.53 | -6.403 | 0.8032 | -0.08946 |
| `CC(C(=O)N1CCCCCC1)N1CCN(c2nccs2)CC1` (stereo not given) | 17.11 | -9.587 | 17.02 | 5.869 |
| `CCNC(=O)C(C)NC(=O)c1cnc(-c2ccc(C)cc2C)s1` (stereo not given) | 33.61 | -23.44 | 19.29 | -0.06352 |
| `O=C(NCc1nccn1CCc1ccccc1)NCC1CCC1` | 7.85 | -5.517 | 10.72 | 2.256 |
| `O=C(O)C(F)(F)F.O=C1CC(c2ccncc2)C2(CCN(C(=O)c3cccs3)CC2)N1` (stereo not given) | 2.81 | - | 3.725 | - |
| `CCCc1cc(C(=O)NCCC2=CCCCC2)[nH]n1` | -3.075 | -10.89 | 32.61 | -1.512 |
| `O=C1CC(c2ccc(C(=O)O)cc2)c2ncn(-c3cccnc3)c2N1` (stereo not given) | 1.266 | -2.467 | -11.03 | 6.249 |
| `CC(C)(C)c1noc(CCC(=O)N2CCN(Cc3ccco3)CC2)n1` | 8.045 | -4.322 | 5.481 | 1.197 |
| `O=C(O)C(F)(F)F.O=C(O)C(F)(F)F.[H][C@@]12OCCN(Cc3scnc3C)[C@@]1([H])CC[C@H]2Oc1ccccn1` | 13.21 | - | 19.04 | - |
| `COc1ccc(C(=O)N2C[C@@H](O)[C@H](NCc3ncccc3C)C2)cc1` | -5.732 | -19.81 | -15.28 | 4.393 |
| `CN(Cc1ccco1)[C@@H]1CN(Cc2nccn2C)[C@@H]2CCCO[C@H]12` | - | 2.818 | - | 0.07678 |
| `Cc1ccc(C2(O)CCN(Cc3nc(C)n4ccccc34)CC2)nc1` | -3.14 | -11.99 | 1.042 | 15.85 |
| `CC(C)(C)c1cn2nc(N3CCC[C@@H]3CO)sc2n1` | 20.83 | 7.85 | -3.534 | -1.711 |
| `O=C1Nc2ccccc2/C1=C1\CCCCN1` | -10.65 | -1.771 | 14.74 | -2.517 |

Repeated from the top, 4 entries:

- CNc1oc(COc2ccc3c(c2)OCO3)nc1C#N : Leishmania in macrophages: 0.6795%; ClpP1P2: -3.203%; Toxoplasma: 29.44%; PfKRS1: 2.206%
- COc1cc(NC(=O)NC2CC2)ccc1N1CCOC1=O : Leishmania in macrophages: -33.89%; ClpP1P2: -5.021%; Toxoplasma: 7.396%; PfKRS1: -1.075%
- CC(C)(C)OC(=O)N1CCC[C@H](NCc2cc[nH]c2)C1 : Leishmania in macrophages: 43.85%; ClpP1P2: -0.5975%; Toxoplasma: 0.8653%; PfKRS1: -1.7%
- COCCN(Cc1cnn(C)c1)C(=O)C1CCC(=O)N(C2CCCC2)C1 (stereo not given) : Leishmania in macrophages: 12.1%; ClpP1P2: 8.168%; Toxoplasma: -7.107%; PfKRS1: -0.4146%